Data as given in patent US20220233605A1, “METHODS OF MAKING AND USING LIVER CELLS” (University Health Network, priority 2019, published 2022).
At least one compound was matched to its structure with a doubt left.

Chains of the proteins cited; added tags and fusions are not shown.
UniProt P13569, whole entry: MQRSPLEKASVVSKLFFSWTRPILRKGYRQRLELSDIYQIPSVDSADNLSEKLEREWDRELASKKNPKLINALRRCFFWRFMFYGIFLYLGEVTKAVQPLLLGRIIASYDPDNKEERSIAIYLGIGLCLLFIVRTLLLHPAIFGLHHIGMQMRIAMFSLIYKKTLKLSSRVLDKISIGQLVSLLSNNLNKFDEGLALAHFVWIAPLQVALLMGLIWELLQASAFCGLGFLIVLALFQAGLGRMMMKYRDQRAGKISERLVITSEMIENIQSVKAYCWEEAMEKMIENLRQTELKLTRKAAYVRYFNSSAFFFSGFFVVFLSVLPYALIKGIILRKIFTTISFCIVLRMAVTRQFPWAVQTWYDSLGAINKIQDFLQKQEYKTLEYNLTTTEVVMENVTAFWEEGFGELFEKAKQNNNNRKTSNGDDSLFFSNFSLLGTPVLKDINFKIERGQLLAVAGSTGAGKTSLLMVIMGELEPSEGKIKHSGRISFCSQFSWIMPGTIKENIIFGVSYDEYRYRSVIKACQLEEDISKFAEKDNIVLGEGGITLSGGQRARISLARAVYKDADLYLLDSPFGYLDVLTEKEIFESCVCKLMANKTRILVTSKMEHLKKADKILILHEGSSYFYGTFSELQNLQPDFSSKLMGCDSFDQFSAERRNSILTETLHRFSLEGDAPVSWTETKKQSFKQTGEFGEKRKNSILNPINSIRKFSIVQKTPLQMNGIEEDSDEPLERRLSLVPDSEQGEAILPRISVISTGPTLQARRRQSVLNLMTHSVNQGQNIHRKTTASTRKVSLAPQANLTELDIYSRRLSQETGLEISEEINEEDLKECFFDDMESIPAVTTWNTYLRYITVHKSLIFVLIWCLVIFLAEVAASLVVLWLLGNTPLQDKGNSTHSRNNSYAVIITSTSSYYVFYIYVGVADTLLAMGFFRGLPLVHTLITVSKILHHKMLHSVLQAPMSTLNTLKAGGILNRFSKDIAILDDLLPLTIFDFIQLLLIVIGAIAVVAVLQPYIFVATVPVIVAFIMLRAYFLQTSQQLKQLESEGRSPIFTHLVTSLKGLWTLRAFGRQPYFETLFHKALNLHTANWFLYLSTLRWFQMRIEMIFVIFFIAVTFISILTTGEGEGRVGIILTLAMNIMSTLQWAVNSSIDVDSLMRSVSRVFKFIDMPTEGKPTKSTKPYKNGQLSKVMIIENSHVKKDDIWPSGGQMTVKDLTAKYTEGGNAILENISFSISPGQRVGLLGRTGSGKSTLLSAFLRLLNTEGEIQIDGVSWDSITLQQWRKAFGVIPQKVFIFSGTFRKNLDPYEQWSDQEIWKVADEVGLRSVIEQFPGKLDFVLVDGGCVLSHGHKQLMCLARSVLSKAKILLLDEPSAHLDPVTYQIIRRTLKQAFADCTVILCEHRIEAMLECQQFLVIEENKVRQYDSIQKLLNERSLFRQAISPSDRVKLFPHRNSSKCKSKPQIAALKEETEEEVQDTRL

How the values were obtained:
CFTR expression = assay: Induction of CFTR expression in hepatoblasts differentiated to cholangiocytes in monolayer (co-culture with OP9-Jag1); format: cell-based, human; settings: hepatoblasts co-cultured with OP9-Jag1, monolayer, 6 days
Procedure: OP9 cells were maintained as described previously. 30 Gray irradiated OP9 cells were plated on 2.5% Matrigel coated wells (12 well plates) at a concentration of 200,000 cells per well in alpha-modified minimum essential media (a-MEM) supplemented with glutamine (2 mM) and 20% fetal bovine serum. To induce the cholangiocytes differentiation, day 27 hepatoblasts were dissociated using collagenase type I enzyme and then plated onto the irradiated OP9 cells. The plated cells were cultured in H21 DMEM/Ham's F12 (3:1) media supplemented with 0.1% BSA, 1% vol/vol B27 supplement, ascorbic acid, glutamine, MTG, HGF (20 ng/ml), and epidermal growth factor (EGF, 50 ng/ml) for 4 days. […] To promote the maturation of cholangiocytes that express primary cilia and 4D9, the cells were cultured with DMEM/F12 medium with 0.1% BSA, 1% vol/vol B27 supplement, ascorbic acid, glutamine, MTG, Noggin (50 ng/ml), ROCK inhibitor Y-27632 (5 μM) and Forskolin (FSK, 5 μM) for 12 days. The medium for all steps of cholangiocytes differentiation were changed every two days. The cells were maintained in an ambient O2 incubator.
It has previously been reported that it is possible to generate cholangiocytes that express a number of markers that are indicative of mature cells including the cystic fibrosis transmembrane conductance regulator (CFTR) gene, in which mutations cause cystic fibrosis. […]

CFTR = biological target: T1, CFTR (Homo sapiens, UniProt P13569); assay: FLIPR membrane potential assay (apical chloride conductance); format: cell-based; settings: treated cholangiocytes, forskolin stimulation
T1 construct: apical chloride conductance, which represents CFTR protein functional activity in the cells; endogenous in cells; host or cells: hPSC-derived day 27 hepatoblasts differentiated to cholangiocyte-like cells (HGF/EGF for 4 days, then retinoic acid for 6 days)

[1] = test system: hPSC-derived cholangiocytes; assay: Characterization of cholangiocytes (qRT-PCR, primary cilia); format: cell-based, human; settings: monolayer
[2] = test system: hPSC-derived cholangiocytes; assay: Flow cytometric screen for DHC5-4D9 reactive mature cholangiocytes in monolayer; format: cell-based, human; settings: added to cultures for 6 days, flow cytometry

Structure (SMILES) | CFTR expression (CFTR expression) | CFTR response in the FLIPR assay (CFTR) | development of cilia in the cholangiocytes [1] | development of DHC5-4D9 cells [2]
CC1=C(/C=C/C(C)=C/C=C/C(C)=C/C(=O)O)C(C)(C)CCC1 [RA, Retinoic Acid] | significantly induced CFTR expression | show a functional CFTR response | did not promote the development of cilia | –
C=C[C@@]1(C)CC(=O)[C@]2(O)[C@@]3(C)[C@@H](O)CCC(C)(C)[C@@H]3[C@H](O)[C@H](OC(C)=O)[C@@]2(C)O1 [forskolin, Forskolin] | – | – | – | promoted the development of DHC5-4D9 cells
